Results are given in words; binding and its absence hold for the method and conditions named. Some binding calls cover weakened binding; strength is not graded here. Tags and fused reporters may be left off the sequences shown.
Assays:
[1] = molecular target: FasL-Flag (Flag-tagged soluble FasL of Example 7) (UniProt P48023); test: immunoprecipitation with anti-Flag agarose, western blot with anti-poly(His)6
[2] = molecular target: Flag-tagged soluble AIM-II (UniProt O43557); test: as above
[3] = molecular target: Flag-tagged soluble AIM-II (UniProt O43557); test: immunoprecipitation in the presence of HVEM/TR2-Fc
[4] = molecular target: Flag-tagged soluble AIM-II (UniProt O43557); test: summary of Example 7 (immunoprecipitation, flow cytometry)
[5] = molecular target: FasL-Flag (Flag-tagged soluble FasL of Example 7) (UniProt P48023); test: summary of Example 7 (immunoprecipitation)
[6] = molecular target: AIM-II expressed on HEK 293 EBNA cells (UniProt O43557); test: flow cytometry on AIM-II-transfected HEK 293 EBNA cells

Protein sequences, listed by entry. Tags and fused reporters are not part of them. Lines headed by an entry give the natural chain unless they say otherwise; changes in a name come on top. Chains listed by the source or under a name are the forms on record and can include a tag or linker. Residues count along the entry.
UniProt P48023, residues 103-281: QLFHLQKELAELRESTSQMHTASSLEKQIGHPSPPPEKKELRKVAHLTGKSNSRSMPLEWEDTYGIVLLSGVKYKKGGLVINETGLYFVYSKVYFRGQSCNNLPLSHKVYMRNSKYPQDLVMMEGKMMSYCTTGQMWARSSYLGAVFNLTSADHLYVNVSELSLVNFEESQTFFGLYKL
UniProt O43557: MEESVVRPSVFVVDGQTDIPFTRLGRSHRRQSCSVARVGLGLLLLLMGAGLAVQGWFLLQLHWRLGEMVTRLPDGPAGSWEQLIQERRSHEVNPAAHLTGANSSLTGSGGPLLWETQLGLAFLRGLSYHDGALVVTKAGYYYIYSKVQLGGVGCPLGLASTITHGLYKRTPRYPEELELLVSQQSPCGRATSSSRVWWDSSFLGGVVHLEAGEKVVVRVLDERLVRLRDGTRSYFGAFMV
Flag-tagged soluble AIM-II: residues 74-240 of O43557

binding [1]: binds | binding [2]: binds | binding [3]: binds | binding [4]: binds | binding [5]: binds | binding [6]: binds
B1: TNFR-6 alpha-(His) (receptor)
chain: VAETPTYPWRDAETGERLVCAQCPPGTFVQRPCRRDSPTTCGPCPPRHYTQFWNYLERCRYCNVLCGEREEEARACHATHNRACRCRTGFFAHAGFCLEHASCPPGAGVIAPGTPSQNTQCQPCPPGTFSASSSSSEQCQPHRNCTALGLALNVPGSSSHDTLCTSCTGFPLSTRVPGAEECERAVIDFVAFQDISIKRLQRLLQALEAPEGWGPTPRAGRAALQLKLRRRLTELLGAQDGALLVRLLQALRVARMPGLERSVRERFLPVHHHHHH

From patent US20040013664A1
